## Primary screen of a compound library

Sequences of proteins named here, by UniProt entry; tags and fusion partners are left off. Residues count along the entry.
UniProt Q8IDJ8, 1-583: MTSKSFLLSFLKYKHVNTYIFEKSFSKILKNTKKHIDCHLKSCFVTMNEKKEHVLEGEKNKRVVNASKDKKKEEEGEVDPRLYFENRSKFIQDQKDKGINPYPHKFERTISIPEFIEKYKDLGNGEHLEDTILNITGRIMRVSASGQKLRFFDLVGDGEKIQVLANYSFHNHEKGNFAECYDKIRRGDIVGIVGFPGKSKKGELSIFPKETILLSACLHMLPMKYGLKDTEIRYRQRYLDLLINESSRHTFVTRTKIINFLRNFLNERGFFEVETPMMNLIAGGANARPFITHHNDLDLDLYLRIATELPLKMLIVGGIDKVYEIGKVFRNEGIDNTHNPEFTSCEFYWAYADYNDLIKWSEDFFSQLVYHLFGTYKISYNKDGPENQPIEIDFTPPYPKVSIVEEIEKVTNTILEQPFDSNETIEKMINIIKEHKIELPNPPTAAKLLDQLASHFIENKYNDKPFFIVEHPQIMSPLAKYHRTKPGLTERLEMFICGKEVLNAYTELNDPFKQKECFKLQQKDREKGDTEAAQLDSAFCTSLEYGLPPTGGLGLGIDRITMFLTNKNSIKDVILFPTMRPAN
UniProt P9WFT3, whole entry: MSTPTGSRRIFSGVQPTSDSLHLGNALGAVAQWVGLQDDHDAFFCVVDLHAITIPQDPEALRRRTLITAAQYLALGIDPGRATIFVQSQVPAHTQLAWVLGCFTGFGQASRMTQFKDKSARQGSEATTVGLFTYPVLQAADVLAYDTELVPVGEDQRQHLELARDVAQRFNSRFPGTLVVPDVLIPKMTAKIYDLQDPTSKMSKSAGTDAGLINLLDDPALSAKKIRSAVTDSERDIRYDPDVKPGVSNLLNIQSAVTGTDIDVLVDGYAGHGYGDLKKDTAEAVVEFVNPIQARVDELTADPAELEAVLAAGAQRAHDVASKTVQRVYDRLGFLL
UniProt P9WPC5, whole entry: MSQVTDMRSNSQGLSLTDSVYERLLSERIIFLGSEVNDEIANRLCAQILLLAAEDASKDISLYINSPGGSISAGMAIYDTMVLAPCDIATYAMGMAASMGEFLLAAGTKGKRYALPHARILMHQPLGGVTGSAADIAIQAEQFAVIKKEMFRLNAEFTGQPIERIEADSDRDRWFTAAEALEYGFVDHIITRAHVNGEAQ
UniProt P9WPC3, whole entry partner: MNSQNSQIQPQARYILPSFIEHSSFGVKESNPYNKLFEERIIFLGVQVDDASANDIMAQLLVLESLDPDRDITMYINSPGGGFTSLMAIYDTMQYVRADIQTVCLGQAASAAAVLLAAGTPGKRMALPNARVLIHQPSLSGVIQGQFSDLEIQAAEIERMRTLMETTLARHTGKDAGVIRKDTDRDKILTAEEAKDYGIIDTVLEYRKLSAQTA
UniProt Q4DA54, 1-478: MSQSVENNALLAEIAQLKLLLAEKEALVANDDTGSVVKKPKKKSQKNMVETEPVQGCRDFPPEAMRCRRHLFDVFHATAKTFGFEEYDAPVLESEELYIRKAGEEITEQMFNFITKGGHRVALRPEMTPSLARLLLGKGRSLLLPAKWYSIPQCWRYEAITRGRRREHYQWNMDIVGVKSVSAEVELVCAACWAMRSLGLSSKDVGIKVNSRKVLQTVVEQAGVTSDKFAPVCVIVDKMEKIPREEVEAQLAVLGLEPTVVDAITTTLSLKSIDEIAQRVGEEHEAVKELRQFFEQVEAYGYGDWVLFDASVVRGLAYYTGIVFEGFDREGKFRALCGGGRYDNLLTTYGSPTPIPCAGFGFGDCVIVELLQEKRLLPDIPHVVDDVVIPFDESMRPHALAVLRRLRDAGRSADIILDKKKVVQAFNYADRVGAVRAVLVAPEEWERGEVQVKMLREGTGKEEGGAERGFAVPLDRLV

Data taken from ChEMBL document CHEMBL3988442, “University of Dundee, Small-Polar-MMV Screening Library” (2021).

PfKRS1: 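Lysine-tRNA ligase, Plasmodium falciparum 3D7 (UniProt Q8IDJ8). Enzyme assay of the cytosolic lysyl-tRNA synthetase in 384-well plates, read by luminescence. Compounds at 30 µM. Higher reads as stronger inhibition, judged from the few compounds that gave an IC50. Of about 69,000 compounds tested this way, about 49 (0.071%) reached 50% or more in at least one test.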
MtTrpRS: 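Enzyme assay of tryptophanyl-tRNA synthetase; the read-out is not stated. Target: Tryptophan-tRNA ligase, Mycobacterium tuberculosis (UniProt P9WFT3). Concentration: 10 µM. Higher most likely means stronger inhibition; the record gives no direction and few retests gave an IC50. About 65,000 compounds were tested under these conditions; 0.098% (about 64) showed 50% or more at least once.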
ClpP1P2: 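ClpP1P2, Mycobacterium tuberculosis (UniProt P9WPC5 and UniProt P9WPC3). Protease assay of ClpP1P2, read by the AMC dye that it sets free. Tested at 50 µM. Direction is inferred from only a few compounds that gave an IC50; most scored high, so higher reads as stronger inhibition. Most other retested compounds had strongly negative values. Of about 69,000 compounds tested this way, about 10 (0.015%) reached 50% or more in at least one test.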
TcHisRS: 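Histidine-tRNA ligase, Trypanosoma cruzi CL Brener (UniProt Q4DA54). Enzyme assay of histidyl-tRNA synthetase; the read-out is not stated. Tested at 30 µM. Direction is inferred from retests: higher values go with stronger inhibition. Size under these conditions: about 69,000 compounds, about 31 of them at 50% or above in at least one test.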

Values are the deposited “Percent Effect”, in %. How 0% and 100% were set is not recorded. Most values in the screen are low, and negative values occur. Compounds were drawn at random from those tested, without regard to their results. A dash means the value is not listed here; it may have been measured.

structure,PfKRS1,MtTrpRS,ClpP1P2,TcHisRS
Cc1ccc(OC2(C(=O)O)CCN(C(=O)c3ccccc3F)CC2)cn1,10.62,-3.888,-10.72,0
CCc1cc(-c2cc[nH]n2)nc(N2CCCC2)n1,0.834,2.074,-3.634,9.871
CN1CCOC(CNCc2csc(C3CCCCC3)n2)C1 (stereo unspecified),1.549,-7.397,0.1601,11.43
CN(Cc1noc(C(C)(C)C)n1)Cc1ccccc1N1CCCC1,4.883,2.647,-7.502,2.242
Cc1oncc1C(=O)N1CCC2(CCN(Cc3ccccn3)C2=O)C1 (stereo unspecified),-8.107,-1.234,-5.452,1.653
CC(=O)NCCn1ccc(-c2ccccn2)n1,2.977,-1.866,-17.67,5
CC(C)N1CC2(CCCN(Cc3noc(C4CCCC4)n3)C2)CCC1=O (stereo unspecified),0.3114,-0.8892,12.96,0
CC(O)(CNC(=O)NCCc1ccc2c(c1)CCO2)c1ccccc1 (stereo unspecified),5.866,0.3285,-9.158,0.4425
CCOCC1CC2(CCN(C(=O)c3cscn3)CC2)CO1 (stereo unspecified),-0.7114,2.616,-2.196,7.438
C[C@@H]1C[C@H](C(F)(F)F)n2nc(C3CCN(C(=O)C(C)(C)C)CC3)cc2N1,1.149,-,-11.15,2.247
COCCN(Cc1ccccn1)C(=O)CC1OCCc2sccc21 (stereo unspecified),4.236,-4.741,-2.687,0
CCc1ncc(C(=O)N2CCn3c(CC)nnc3C2)s1,3.097,-2.571,-0.461,7.143
N#Cc1c(N)nc2c(c1-c1cnc(N3CCCC3)nc1)COCC2,8.966,3.698,-3.648,4.95
COc1cc(Cl)cc(CN2CCCC(N3CCCC3)C2)c1OC (stereo unspecified),-0.3328,2.574,-3.421,27.14
O=C(CCc1ccsc1)N1CCCC(n2cncn2)C1 (stereo unspecified),1.301,-4.036,-13.91,0.5814
CCC[C@H]1CN(S(=O)(=O)c2cc(C)ccc2C)C[C@@H]1N,2.352,-2.058,-28.06,9.195
CCn1ncc2c1CCCC2NCc1ccccc1N1CCOCC1 (stereo unspecified),2.698,7.923,4.916,-2.817
CC(NC(=O)CCCOc1ccccc1Cl)c1ccncc1 (stereo unspecified),-3.419,-3.92,2.213,4.959
Cc1ccc(Cl)c2c1C1(NC(=O)c3cccnc3N1)C(=O)N2 (stereo unspecified),3.218,-2.328,-9.085,3.933
CCc1c(C)[nH]c(C2(N)CCCC2)nc1=O,10.76,6.242,13.43,4.867
COc1ncccc1CN1C[C@@H]2COC[C@]2(COCC2CC2)C1,0.5015,-2.814,-9.857,-1.639
Cc1cccc(C(=O)N2CC[C@]3(C[C@H](OCc4ccccn4)CO3)C2)c1,-2.373,7.975,5.772,0
Cn1ccnc1CN1C[C@@H](CN2CCCCC2)[C@@H](CO)C1,-3.56,-7.914,3.906,-2.5
CC(C)N1CCC2(CCCN(c3nccc(C(F)(F)F)n3)C2)CC1,5.644,-6.063,-17.22,7.767
O=C(c1ccncc1)N1CCC2(CCCN(c3ncc(F)cn3)C2)C1 (stereo unspecified),4.563,-,-0.5797,-1.058
CSc1ccc(NC(=O)NCc2nncn2C2CC2)cc1F,1.798,0.3749,3.747,5.319
c1coc(CN2CCC3(CCOCC3COCC3CC3)CC2)c1 (stereo unspecified),6.906,-2.021,5.045,7.767
CCCC(C)(C)NC(=O)c1ccc(CC2CC(=O)NC2=O)cc1 (stereo unspecified),-4.741,2.78,-8.421,-0.8264
Cc1ccc(OCC(=O)NS(=O)(=O)c2c(C)noc2C)cc1C,-1.993,-2.895,1.585,2.29
CC(C)COCCC(=O)NCCC(=O)N1CCN(c2ccccn2)CC1,4.687,3.375,-5.403,6.533
CN1CC(c2ccccc2)CC12CCN(C(=O)c1cccnc1)CC2 (stereo unspecified),17.78,1.701,5.158,4.082
CN(C)S(=O)(=O)NCc1cccnc1Oc1ccc(F)c(F)c1,1.32,-1.911,-5.516,4.712
COc1ccc(CN2CCOC[C@H](OCCC(C)C)C2)cc1,5.697,-4.195,-4.608,0.4975
O=C1CCN(C(=O)NCc2ccccc2Oc2ccccc2)CCN1,-0.166,-7.327,-1.385,4.972
O=C(c1ncccc1O)N1CCc2c(ncnc2N2CCOCC2)C1,2.273,3.232,-7.486,3.175
CCOCC(O)CN1CCN(C(=O)Cc2ccccc2C)CC1 (stereo unspecified),1.661,0,7.328,1.901
Cc1cccc(CN2CCN(C(=O)[C@@H]3CSCN3C)CC2)c1,4.333,1.338,-1.341,4.865
O=C(NCCc1c[nH]c2ccccc12)C1CCC(Cn2cnnn2)CC1 (stereo unspecified),2.182,13.66,2.174,4.094
O=C(CCN1CCc2ccccc21)N1C[C@@H](O)[C@H](N2CCCC2)C1,0.9876,-8.314,-5.433,6.844
CN(C)S(=O)(=O)N1CCC2(CC1)CC(OCC1CC1)CO2 (stereo unspecified),1.392,-4.689,0.9972,1.149
O=S(=O)(C1CC1)N1CCO[C@H]2[C@@H](Oc3ncccc3F)CC[C@@H]21,3.491,0.1696,-5.22,3
O=C(COc1ccc(Cl)cc1)NCc1nncn1C1CC1,1.84,2.217,-5.151,9.524

For reference, 5 entries once more:

| structure | PfKRS1 | MtTrpRS | ClpP1P2 | TcHisRS |
|---|---|---|---|---|
| `CN1CC(c2ccccc2)CC12CCN(C(=O)c1cccnc1)CC2` (stereo unspecified) | 17.78 | 1.701 | 5.158 | 4.082 |
| `Cc1ccc(OCC(=O)NS(=O)(=O)c2c(C)noc2C)cc1C` | -1.993 | -2.895 | 1.585 | 2.29 |
| `COc1cc(Cl)cc(CN2CCCC(N3CCCC3)C2)c1OC` (stereo unspecified) | -0.3328 | 2.574 | -3.421 | 27.14 |
| `CC(O)(CNC(=O)NCCc1ccc2c(c1)CCO2)c1ccccc1` (stereo unspecified) | 5.866 | 0.3285 | -9.158 | 0.4425 |
| `CN(C)S(=O)(=O)NCc1cccnc1Oc1ccc(F)c(F)c1` | 1.32 | -1.911 | -5.516 | 4.712 |